Some of these results come from one statement about several compounds together.
Biological target: T1, hMMP-12 (Homo sapiens, UniProt P39900)
T1 construct: The catalytic domain (Gly106-Gly263) of human macrophage metalloelastase (hMMP-12); made in house; host or cells: E. coli BL21 Codon Plus (pET21 vector, NdeI/BamHI)
Test: SensoLyte 520 MMP-12 fluorimetric enzyme inhibition assay
Format: biochemical
Details: same experimental conditions

The chains behind the UniProt entries cited, without tags or fusion partners. Residues count along the entry.
UniProt P39900, 106-263: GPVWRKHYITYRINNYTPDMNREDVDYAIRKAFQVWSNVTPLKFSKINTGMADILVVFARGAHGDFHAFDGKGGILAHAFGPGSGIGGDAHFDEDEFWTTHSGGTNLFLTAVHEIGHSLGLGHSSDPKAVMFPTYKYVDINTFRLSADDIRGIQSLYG

SMILES | relative potency versus MMP408 [times]
COc1ccc(CC[C@@H](NC(=O)[C@H](CCCc2ccccc2)NC(=O)CN2CCOCC2)C(=O)N[C@H](Cc2ccc(C)cc2)C(=O)NO)cc1 [Compound 25] | > 5
COc1ccc(CCC[C@H](NC(=O)CN2CCOCC2)C(=O)N[C@H](CCc2ccc(OC)cc2)C(=O)N[C@H](Cc2ccc(C)cc2)C(=O)NO)cc1 [Compound 26] | > 5
